Experimental data taken from patent publication US20260108607A1.
Residue numbers refer to the chain shown, from its start. These are yes or no findings as the source states them, for the method shown. Some results given as binding are weak or reduced against the parent protein; the word gives no strength.

B1: 20-2-37 (antibody, V domains shown)
VH: EVMLVESGGGLVKPGGSLKLSCAASRFTFSNYAMSWVRQTPEKRLEWVATITSGGSYTYYPDSVKGRFTISRDNAKNTLYLQMSSLRSEDTAMYYCARKDYGNYWFAYWGQGTLVTVSA
VL: DVVMTQTPLSLPVSLGDQASISCRSSQSLVHSDGNTYLHWYLQKPGQSPKLLIYKVSNRFSGVPDRFSGSGSGTDFTLKISRVEAEDLGVYFCSQSIHVPWTFGGGTKLEIK
B2: murine antibody 20-2-1 (clone 83F7B2) (antibody, V domains shown)
VH: QIQLVQSGPELKKPGETVKISCKASGYTFTDFSMHWVKQAPGKGLKWMGWINTETGEPSYADDFKGRFAFSLETSASTAYLQINNLKNEDTATYFCANYGYDVRGDYWGQGTTLTVSS
VL: EIVLTQSPTTMAASPGEKITITCSASSSISSNYLHWYQQKPGFSPKLLIYGTSNLASGVPARFSGSGSGTSYSLTIGTMEAEDVATYYCHQGSSIPLTFGAGTKLELK
B3: humanized antibody 28-H3 (84C3G8H7-VH3 + VL1) (scFv)
scFv: QVQLVQSGAEVKKPGASVKVSCKASGFNIKDYYMHWVRQAPGQRLEWIGWIDPENGNTIYDPKFQGRATITADTSASTAYMELSSLRSEDTAVYYCARGWFAYWGQGTLVTVSSGGGGSGGGGSGGGGSGGGGSDIVMTQSPDSLAVSLGERATINCKSSQSLLNSSNQKNHLAWYQQKPGQPPKLLIYFASTRASGVPDRFSGSGSGTDFTLTISSLQAEDVAVYYCQQHYSTPLTFGGGTKLELK
B4: humanized antibody 28-H4 (84C3G8H7-VH3 + VL2) (scFv)
scFv: B3 scFv with I188V, Y227F
B5: humanized antibody 28-H5 (84C3G8H7-VH4 + VL1) (scFv)
scFv: B3 scFv with R38K, S77N
B6: humanized antibody 28-H7 (84C3G8H7-VH3 + VL1(PTM)) (scFv)
scFv: B3 scFv with A195G
B7: humanized antibody 28-H8 (84C3G8H7-VH3 + VL2(PTM)) (scFv)
scFv: B3 scFv with I188V, A195G, Y227F
B8: humanized antibody 28-H9 (84C3G8H7-VH4 + VL1(PTM)) (scFv)
scFv: B3 scFv with R38K, S77N, A195G
B9: chimeric-VH + VL of clone 20-2-40-2 (98G2E9) (antibody, V domains shown)
VH: B1 VH with M3L, R26G, N31G
VL: B1 VL with S96T, I97T, H98Q
B10: humanized antibody 40-2-H9 (98G2E9-VH5 + VL5) (scFv)
scFv: EVQLLESGGGLVQPGGSLKLSCAASGFTFSGYAMSWVRQTPGKGLEWVATITSGGSYTYYPDSVKGRFTISRDNSKNTLYLQMNSLRAEDTAMYYCARKDYGNYWFAYWGQGTLVTVSSGGGGSGGGGSGGGGSGGGGSDVVMTQSPLSLPVTLGDPASISCRSSQSLVHSDGNTYLHWYLQRPGQSPRLLIYKVSNRFSGVPDRFSGSGSGTDFTLKISRVEAEDVGVYFCSQTTQVPWTFGGGTKLEIK
B11: humanized antibody 40-2-H10 (98G2E9-VH5 + VL6) (scFv)
scFv: B10 scFv with D156Q, P157Q, R183K, R189K
B12: humanized antibody 40-2-H11 (98G2E9-VH5 + VL7) (scFv)
scFv: B10 scFv with P157Q, R183K, R189K
B13: humanized antibody 40-2-H12 (98G2E9-VH6 + VL5) (scFv)
scFv: B10 scFv with G42E, S75A
B14: humanized antibody 40-2-H13 (98G2E9-VH6 + VL6) (scFv)
scFv: B10 scFv with G42E, S75A, D156Q, P157Q, R183K, R189K

The binders below were run against EGFRvIII overexpressed on target cells (UniProt P00533) (assay: flow cytometry of the subclone supernatant on F98npEGFRvIII cells (Geom mean)).

binding, binds:
B1

Each binder was assayed against EGFRvIII target antigen (SPR ligand) (UniProt P00533) (assay: SPR, 1:1 binding fit).

binding, binds:
B2
B3
B4
B5
B6
B7
B8

The binders below were run against EGFRvIII target antigen (SPR ligand) (UniProt P00533) (assay: SPR).

binding, binds:
B2

The binders below were run against EGFRvIII target antigen (SPR ligand) (UniProt P00533) (assay: SPR, 1:1 binding fit (target EGFRvIII by the legend and Table 3; not in the panel title)).

binding, binds:
B9
B10
B11
B12
B13
B14
